The nature of this test: qHTS Assay to Find Inhibitors of Chronic Active B-Cell Receptor Signaling. As to conditions: ABC-DLBCL IkBa-CBG/CBR reporter, luminescence ratio (green luciferase fused to IkBa over red control in TMD8 lymphoma cells), 4 h. A digest of the protocol:
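Compounds up to 46 uM were incubated four hours with TMD8 cells whose green CBG68 luciferase is fused to IkappaBalpha; red CBR luminescence normalised the signal, and concentration-effect curves were fitted to fusion, red and ratio data.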

[1] abbreviates: measured here: CBR red luminescence, cell number.
Setting [2] is: measured here: IkBa-CBG green luminescence.

This is one part of the list. Further columns of the screen follow, without active or inactive calls. The list favours compounds with an active or inconclusive main result. The note in brackets gives the kind of curve behind each potency; many fits are weak.

For the compound `BrC(=C\c1ccccc1)/C=N/Nc1nc2ccccc2[nH]1`, the half-maximal activity concentration (AC50) under setting [1] was 32.6 µM [falling, partial curve, poor fit].

As for `CC(=O)Oc1ccc(N(C(C)=O)S(=O)(=O)c2ccc(Cl)cc2)c2ccccc12`, the half-maximal activity concentration (AC50) reads like this: under setting [1], 15.8 µM [falling, single point]; under setting [2], 12.6 µM [falling, partial curve, poor fit].

`O=C(COC(=O)/C=C/c1ccccc1Cl)NC(=O)NCc1ccccc1`: the concentration at half-maximal activity (AC50) under setting [1] was 2.59 µM [rising, full curve, poor fit].

On to `OC(CN1CCOCC1)C12CC3CC(CC(C3)C1)C2` (stereo unspecified), for which the AC50 under setting [1] was 29.1 µM [falling, single point].

As to `O=C(N/N=C/c1ccco1)c1cccc(N2Cc3ccccc3C2)c1`, the half-maximal activity concentration (AC50) under setting [1] is 7.08 µM [falling, full curve].

As to `Cc1cc(C)cc(OCC(=O)N(C)CC(=O)Nc2ccc(N3CCOCC3)cc2)c1`, the concentration at half-maximal activity (AC50) under setting [1] is 29.1 µM [rising, single point].

With `O=C(O)c1ccc(N/N=C/c2cc3cc4c(cc3nc2Cl)OCCO4)cc1`, the concentration at half-maximal activity (AC50) under setting [1] was 1.58 µM [falling, full curve].

As to `COc1ccc(NC(=O)/C(N=Nc2cc(S(=O)(=O)Nc3ccc(OC)cc3)ccc2OC)=C(\C)O)cc1`, the AC50 under setting [1] was 12.6 µM [rising, partial curve, poor fit].

Take `Cc1cccc(Cn2c(C(=O)OC(C)C)cc3c2ccn3C)c1`: the AC50 under setting [1] is 8.2 µM [rising, partial curve].

As for `NC(=O)CSc1nnc(NC(=O)c2ccc(Br)o2)s1`, under setting [1], the AC50 is 35.5 µM [falling, single point].

In the case of `COc1ccc(N2CCN(c3nc(NC(C)(C)C)nc(N4CCCCC4)n3)CC2)cc1`, under setting [1], the half-maximal activity concentration (AC50) was 20.6 µM [rising, partial curve, poor fit].

In the case of `CCNC(=S)Nc1cccc(S(=O)(=O)NC2=NCCC2)c1`, the AC50 under setting [1] was 35.5 µM [rising, single point].

For the compound `O=C(CSc1nnc2c(n1)[nH]c1ccccc12)Nc1ccc2c(c1)OCO2`, the concentration at half-maximal activity (AC50) under setting [1] was 0.206 µM [falling, full curve, poor fit].

`C/C(=N/NC(=O)CNC(=O)/C=C/c1ccccc1)c1ccco1`: the AC50 under setting [1] is 5.01 µM [rising, single point].

Take `O=c1c(-c2nc3ccccc3s2)cccn1Cc1ccc(Cl)cc1`: under setting [1], the AC50 is 2.51 µM [falling, single point].

Regarding `CCC(C)Nc1nc(OC)nc(N(C)C#N)n1` (stereo unspecified), the half-maximal activity concentration (AC50) under setting [1] was 6.31 µM [falling, single point].

As to `COc1ccc(C2/C(=C(/O)c3ccccc3)C(=O)C(=O)N2c2ncccn2)cc1OC` (stereo unspecified), the AC50 under setting [1] is 14.6 µM [rising, partial curve, poor fit].

For the compound `COc1cc2c(c(OC)c1OC)-c1ccc(N(C)CC(OC)OC)c(=O)cc1[C@@H](NC(C)=O)CC2`, the AC50 is 7.08 µM [rising, partial curve] under setting [1] and 6.31 µM [falling, partial curve] under setting [2].

On to `CCCCN(CCCC)C(=O)C1CC=CCC1C(=O)O` (stereo unspecified), for which the concentration at half-maximal activity (AC50) under setting [1] was 0.708 µM [falling, full curve, poor fit].

For `O=C(CSc1nnc(CNc2ccc(F)cc2)o1)N1c2ccccc2Sc2ccccc21`, the concentration at half-maximal activity (AC50) under setting [1] is 3.16 µM [falling, single point].

Regarding `CCOc1ccc(N=C(NC#N)SCC)cc1`, the AC50 under setting [1] is 18.4 µM [rising, single point].

With `Cc1sc2ncn(CC(=O)NCC3COc4ccccc4O3)c(=O)c2c1S(=O)(=O)N1CCOCC1` (stereo unspecified), under setting [1], the AC50 was 0.282 µM [rising, full curve, poor fit].

Regarding `O=C(O)C1CC(=O)N(c2ccc(OCc3ccccc3)cc2)C1` (stereo unspecified), the AC50 under setting [1] was 13 µM [falling, partial curve, poor fit].

Take `COc1ccc(Cc2nc3ccc(C(=O)NCCc4ccncc4)cc3o2)cc1OC`: the AC50 under setting [1] is 4.47 µM [rising, partial curve, poor fit].

For the compound `Cc1cccc(C)c1OCCCCCNCCO`, under setting [1], the half-maximal activity concentration (AC50) is 32.6 µM [falling, partial curve, poor fit].

For `Cc1ccc(C(=O)OCC(=O)Nc2ccccc2C(F)(F)F)cc1S(=O)(=O)N1CCCCC1`, the AC50 under setting [1] was 20.6 µM [rising, single point].

Consider `CCOC(CCNC(=O)c1cn(CC(C)C)c(=O)c2c1c1ccccc1n2C)OCC`, for which the half-maximal activity concentration (AC50) under setting [1] was 3.55 µM [rising, full curve, poor fit].

As to `O=C(Nc1ccccc1N1CCCC1)c1ccc(Cl)c(S(=O)(=O)N2CCOCC2)c1`, the AC50 under setting [1] is 6.51 µM [rising, single point].

Take `Cc1cc(C)cc(Nc2ncnc3nc[nH]c23)c1`: under setting [1], the half-maximal activity concentration (AC50) is 11.2 µM [falling, partial curve, poor fit].

As for `C(=N\N1CCOCC1)/c1cccs1`, the half-maximal activity concentration (AC50) under setting [1] was 29.1 µM [rising, single point].

In the case of `Cc1cc(C)c(NC(=O)COC(=O)c2cccc3c2C(=O)c2ccccc2C3=O)c(C)c1`, the half-maximal activity concentration (AC50) under setting [2] was 2.31 µM [falling, partial curve, poor fit].

With `CC(=O)Nc1ccc(NC(=O)Cc2ccc(-c3ccccc3)cc2)cc1`, the AC50 under setting [1] was 20 µM [falling, single point].

Regarding `CCC(=O)N1CCN(c2nc(CC)nc3sc4c(c23)CCCC4)CC1`, the AC50 under setting [1] was 8.91 µM [falling, partial curve].

As to `CCOC(=O)C1(CC2CC2)CCN(S(=O)(=O)C[C@]23CC[C@H](CC2=O)C3(C)C)CC1`, the AC50 under setting [1] was 35.5 µM [rising, partial curve, poor fit].

Regarding `O=C(NC1(O)C(=O)c2ccccc2C1=O)c1c(Cl)cccc1Cl`, the concentration at half-maximal activity (AC50) under setting [1] is 11.2 µM [rising, partial curve, poor fit].

Take `COCCN(CC(=O)Nc1ccccc1C(F)(F)F)C(=O)c1ccc(-n2cccn2)cc1`: the AC50 under setting [1] is 16.4 µM [rising, partial curve, poor fit].

For the compound `CC1CCCN(C(=O)COC(=O)c2n[nH]c3ccccc23)C1` (stereo unspecified), the AC50 under setting [1] was 20 µM [falling, single point].

For the compound `Cc1nnc(NC(=O)c2ccc(S(=O)(=O)C(F)F)cc2)s1`, the AC50 under setting [1] is 3.16 µM [rising, partial curve, poor fit].

With `CC1CN(CCCCOc2ccc3ccccc3c2)CC(C)O1` (stereo unspecified), the AC50 under setting [1] was 11.6 µM [rising, partial curve, poor fit].

In the case of `Cc1cc(C(=O)CSc2nnc(N)s2)c(C)n1Cc1cccs1`, under setting [1], the half-maximal activity concentration (AC50) was 0.164 µM [rising, full curve, poor fit].

Regarding `COC(=O)c1ccc(NC(=O)c2ccccc2CC[N+](=O)[O-])cc1`, under setting [1], the half-maximal activity concentration (AC50) is 3.55 µM [falling, full curve].

On to `COC(=O)COc1ccc(=O)n(-c2ccccc2)n1`, for which the concentration at half-maximal activity (AC50) under setting [1] is 0.731 µM [rising, full curve, poor fit].

Consider `CCOC(=O)C1(N(CC)CC)Sc2cc(C)ccc2NC1=O` (stereo unspecified), for which, under setting [1], the half-maximal activity concentration (AC50) was 22.4 µM [falling, partial curve, poor fit].

With `C[C@H](CO)N1C[C@H](C)[C@@H](CN(C)S(=O)(=O)c2ccc(F)cc2)Oc2ccc(NC(=O)C3CC3)cc2C1=O`, under setting [1], the AC50 is 18.4 µM [rising, single point].

For `O=C(Nc1cccc(S(=O)(=O)N2CCCCC2)c1)c1ccccc1NS(=O)(=O)c1ccc(F)cc1`, under setting [1], the AC50 is 2.31 µM [falling, full curve].

For the compound `CCCCC(=O)Nc1nc(C)c(-c2csc(Nc3ccc(Cl)cc3)n2)s1`, the AC50 under setting [1] was 0.708 µM [rising, partial curve].

As for `O=C(NN=C1CCCCCCCCCCC1)c1ccncc1`, under setting [1], the concentration at half-maximal activity (AC50) is 35.5 µM [falling, single point].

Take `CCOC(=O)N1CCC(Nc2c(NCCN3CCN(c4cccc(Cl)c4)CC3)c(=O)c2=O)CC1`: under setting [1], the AC50 is 1.46 µM [rising, partial curve, poor fit].

With `COc1ccc(CCNC(=O)CSc2nnc3ccc(-c4ccncc4)nn23)cc1`, the AC50 under setting [1] was 20 µM [rising, single point].

For the compound `COc1ccc2cc(C[C@@H]3CC[C@@H](CO)O3)ccc2c1`, the AC50 under setting [1] is 11.6 µM [rising, partial curve, poor fit].

With `CCn1ccc(C(=O)N2CCOCC2)n1`, under setting [1], the AC50 was 3.98 µM [rising, full curve, poor fit].

As for `CC(C)CNc1oc(-c2ccc(F)cc2)nc1C#N`, the half-maximal activity concentration (AC50) under setting [1] is 6.51 µM [rising, single point].

As to `CCOC(=O)c1c(-c2ccc(C)cc2)csc1NC(=O)c1cc2ccccc2oc1=O`, the half-maximal activity concentration (AC50) is 35.5 µM [rising, single point] under setting [1] and 35.5 µM [falling, single point] under setting [2].

Turning to `O=c1c2ccccc2nc(SCc2ccccc2F)n1C1CCCC1`, the half-maximal activity concentration (AC50) under setting [1] is 5.8 µM [rising, single point].

Turning to `O=C(CS(=O)(=O)c1ccccc1)c1cc2cc(F)ccc2oc1=O`, the half-maximal activity concentration (AC50) under setting [1] is 35.5 µM [falling, single point].

For `COc1ccccc1NC(=O)COC(=O)Cc1ccc(S(=O)(=O)N2CCCCC2)s1`, the AC50 under setting [1] is 2.51 µM [rising, full curve, poor fit].

Regarding `Cc1cc(=O)c2ccccc2s1`, the half-maximal activity concentration (AC50) under setting [1] is 3.16 µM [falling, single point].

`CCc1ccc(-c2cc(N)n(-c3ccccc3)n2)cc1`: under setting [1], the AC50 is 2.51 µM [rising, partial curve, poor fit].

With `O=C(O)CCCCCNc1ccc2nsnc2c1[N+](=O)[O-]`, the half-maximal activity concentration (AC50) under setting [1] is 20.6 µM [falling, single point].

Take `CC(Sc1n[nH]c(=O)n1Cc1ccccc1)C(=O)NC1CCCCC1C` (stereo unspecified): the AC50 under setting [1] was 20.6 µM [falling, partial curve, poor fit].

Turning to `CC1CCCN(C(=O)C2CCN(c3nc(-c4ccccc4)nc4c3CCC4)CC2)C1` (stereo unspecified), under setting [1], the AC50 is 20 µM [falling, partial curve, poor fit].

For `Cn1c(=O)c([N+](=O)[O-])c(NCC(O)c2ccccc2)c2ccccc21` (stereo unspecified), the half-maximal activity concentration (AC50) under setting [1] is 0.00461 µM [rising, full curve, poor fit].

With `CC(C)[C@H](NC(=O)N1CCn2c1nc1ccccc12)C(=O)NCc1ccc(F)cc1`, the AC50 under setting [1] was 10 µM [falling, partial curve].

(Values after PubChem BioAssay AID493014 (National Center for Advancing Translational Sciences (NCATS), 2011).)
